Values from PubChem BioAssay AID504793 (Drosophila RNAi Screening Center, 2011).

- Aim: 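Genes required for cells to halt at G2/M after double-strand DNA breaks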 (primary screen)
- Cells: Drosophila S2R+ cells
- Reagents: long dsRNA against Drosophila genes, about 0.25 µg dsRNA per well
- Duration: 4 days of dsRNA, then 4 hours of drug before read-out
- Conditions: doxorubicin 0.5 µM for 4 hours to cause double-strand breaks, in cells also given a low, harmless dose of dsRNA against nbs to sensitise the assay
- Measurement: 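Per-well count of mitotic cells stained for phospho-histone H3 after doxorubicin exposure, used as mitotic index; counts are raw and not normalised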
- Scale: mitotic cells: higher = more cells in mitosis, weaker G2 arrest
- Rule for the call: 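a call needs confirmation in secondary tests, with other dsRNAs and a check of mitotic timing without damage, not just a high primary count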
- Calls: active = confirmed in follow-up tests; inactive = not confirmed
The screen tested about 23,000 reagents; below is a random part of those that have a named target and a result. In the full data, 62 (0.27%) are marked active. 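Calls come from follow-up tests whose scores are not deposited, so confirmed genes may have low counts here; counts are not normalised per plate.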 Raw values vary from plate to plate and are shown uncorrected.

After knock-down of CG32053 [DRSC10683], the screen gave mitotic cells, replicate 1 = 8; inactive. Knock-down of CG4382 [DRSC02743] resulted in: mitotic cells, replicate 1 = 7; mitotic cells, replicate 2 = 4; inactive. CG4382 [DRSC29493] scored mitotic cells, replicate 1 = 14; inactive. Uba5 [DRSC19775] showed mitotic cells, replicate 1 = 13; inactive. Ns4 [DRSC03199] scored mitotic cells, replicate 1 = 8; inactive. For Ns4 [DRSC27230], the entry reads mitotic cells, replicate 1 = 4; inactive.

Pp1alpha-96A [DRSC16795] gave mitotic cells, replicate 1 = 9; inactive. After knock-down of Pp1alpha-96A [DRSC23320], the screen gave mitotic cells, replicate 1 = 7; inactive. Silencing of Pp1alpha-96A [DRSC25667] gave: mitotic cells, replicate 1 = 4; inactive. CycB [DRSC04605] gave mitotic cells, replicate 1 = 11; inactive.

Reformatted: 3 of the entries above.
| Gene | dsRNA | mitotic cells, replicate 1 | mitotic cells, replicate 2 | outcome |
| --- | --- | --- | --- | --- |
| Pp1alpha-96A | DRSC16795 | 9 | – | inactive |
| Pp1alpha-96A | DRSC23320 | 7 | – | inactive |
| Pp1alpha-96A | DRSC25667 | 4 | – | inactive |

Additional reagents follow:
For Or43b [DRSC07486], the entry reads mitotic cells, replicate 1 = 4; inactive. With knock-down of Or43b [DRSC29565], the screen gave mitotic cells, replicate 1 = 3; inactive. Against CG10435 [DRSC14246], the values are mitotic cells, replicate 1 = 9; inactive. After knock-down of CG10435 [DRSC25312], the screen gave mitotic cells, replicate 1 = 2; inactive. With knock-down of dpr11 [DRSC12561], the screen gave mitotic cells, replicate 1 = 6; inactive. Silencing of dpr11 [DRSC12562] gave: mitotic cells, replicate 1 = 6; inactive.

For dpr11 [DRSC12563] the deposit lists mitotic cells, replicate 1 = 8; inactive. CG12869 [DRSC06208] showed mitotic cells, replicate 1 = 6; inactive. Knock-down of CG3281 [DRSC15470] gave: mitotic cells, replicate 1 = 14; inactive. For CG3281 [DRSC28414], the entry reads mitotic cells, replicate 1 = 7; inactive. After knock-down of hpo [DRSC06065], the record shows mitotic cells, replicate 1 = 6; inactive. Silencing of levy [DRSC04289] gave: mitotic cells, replicate 1 = 10; inactive.

Against CG18789 [DRSC02696], the entry reads mitotic cells, replicate 1 = 2; inactive.
